The list shows a part of the results.

The chains behind the UniProt entries cited, without tags or fusion partners. Where a name states a change or a piece, a line headed by the entry shows the natural chain unless it says otherwise.
UniProt Q12797: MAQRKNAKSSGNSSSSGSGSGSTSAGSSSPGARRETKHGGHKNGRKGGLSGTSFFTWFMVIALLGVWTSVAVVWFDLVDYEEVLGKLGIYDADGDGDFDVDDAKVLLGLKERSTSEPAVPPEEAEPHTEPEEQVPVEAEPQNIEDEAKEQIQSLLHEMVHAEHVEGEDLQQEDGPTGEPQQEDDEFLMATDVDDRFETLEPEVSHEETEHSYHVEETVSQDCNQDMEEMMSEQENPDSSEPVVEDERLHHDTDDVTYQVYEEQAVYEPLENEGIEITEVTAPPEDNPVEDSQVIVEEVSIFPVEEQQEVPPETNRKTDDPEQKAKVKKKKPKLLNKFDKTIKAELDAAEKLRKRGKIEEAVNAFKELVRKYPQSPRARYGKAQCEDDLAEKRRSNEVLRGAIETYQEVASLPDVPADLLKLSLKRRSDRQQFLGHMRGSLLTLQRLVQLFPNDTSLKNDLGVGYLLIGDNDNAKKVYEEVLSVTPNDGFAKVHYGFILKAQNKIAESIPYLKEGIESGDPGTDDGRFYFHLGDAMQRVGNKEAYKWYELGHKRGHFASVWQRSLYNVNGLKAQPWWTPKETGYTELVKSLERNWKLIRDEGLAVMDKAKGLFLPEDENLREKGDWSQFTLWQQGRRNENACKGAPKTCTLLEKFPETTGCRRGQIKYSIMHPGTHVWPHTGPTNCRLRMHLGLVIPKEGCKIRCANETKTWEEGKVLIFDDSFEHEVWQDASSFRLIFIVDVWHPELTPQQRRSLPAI
UniProt Q6DD88: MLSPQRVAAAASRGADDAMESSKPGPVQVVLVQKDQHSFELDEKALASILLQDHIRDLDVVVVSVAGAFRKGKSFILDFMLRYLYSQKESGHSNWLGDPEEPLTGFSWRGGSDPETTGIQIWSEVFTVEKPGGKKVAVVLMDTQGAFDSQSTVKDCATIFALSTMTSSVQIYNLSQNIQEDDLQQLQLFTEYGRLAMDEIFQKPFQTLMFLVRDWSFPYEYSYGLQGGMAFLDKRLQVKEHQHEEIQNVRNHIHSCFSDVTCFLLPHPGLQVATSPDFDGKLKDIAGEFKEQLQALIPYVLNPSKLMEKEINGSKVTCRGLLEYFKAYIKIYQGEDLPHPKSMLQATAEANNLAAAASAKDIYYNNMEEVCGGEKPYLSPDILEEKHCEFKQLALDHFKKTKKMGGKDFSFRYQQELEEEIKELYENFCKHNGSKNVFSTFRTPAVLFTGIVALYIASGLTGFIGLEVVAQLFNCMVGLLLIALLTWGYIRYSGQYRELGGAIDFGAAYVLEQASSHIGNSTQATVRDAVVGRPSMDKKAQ
UniProt Q06055: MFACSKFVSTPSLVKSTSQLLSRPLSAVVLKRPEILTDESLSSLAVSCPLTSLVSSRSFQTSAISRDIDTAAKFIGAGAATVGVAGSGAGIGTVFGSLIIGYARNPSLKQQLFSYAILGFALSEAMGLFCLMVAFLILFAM
UniProt Q9NVT9: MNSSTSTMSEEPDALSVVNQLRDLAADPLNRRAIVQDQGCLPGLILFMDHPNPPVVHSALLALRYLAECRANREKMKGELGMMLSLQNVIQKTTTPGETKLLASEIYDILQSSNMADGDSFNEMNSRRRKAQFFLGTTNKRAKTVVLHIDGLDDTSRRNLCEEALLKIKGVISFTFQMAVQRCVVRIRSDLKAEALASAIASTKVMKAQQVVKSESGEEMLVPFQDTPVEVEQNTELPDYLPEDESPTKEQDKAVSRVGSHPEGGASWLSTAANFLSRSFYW
UniProt P15336: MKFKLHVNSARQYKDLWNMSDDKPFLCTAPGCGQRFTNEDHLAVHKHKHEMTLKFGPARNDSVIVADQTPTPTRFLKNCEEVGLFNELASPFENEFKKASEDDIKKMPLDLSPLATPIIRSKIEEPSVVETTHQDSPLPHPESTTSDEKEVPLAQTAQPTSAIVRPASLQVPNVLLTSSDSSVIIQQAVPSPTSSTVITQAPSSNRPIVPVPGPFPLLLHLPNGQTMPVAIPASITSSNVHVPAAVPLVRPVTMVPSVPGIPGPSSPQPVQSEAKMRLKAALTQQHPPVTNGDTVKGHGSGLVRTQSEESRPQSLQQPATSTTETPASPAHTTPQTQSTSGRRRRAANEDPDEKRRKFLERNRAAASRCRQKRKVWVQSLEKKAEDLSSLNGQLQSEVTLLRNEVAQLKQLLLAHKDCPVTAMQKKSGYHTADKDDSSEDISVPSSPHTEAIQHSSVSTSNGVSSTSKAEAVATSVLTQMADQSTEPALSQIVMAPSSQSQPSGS
UniProt P61421, whole entry, looked up: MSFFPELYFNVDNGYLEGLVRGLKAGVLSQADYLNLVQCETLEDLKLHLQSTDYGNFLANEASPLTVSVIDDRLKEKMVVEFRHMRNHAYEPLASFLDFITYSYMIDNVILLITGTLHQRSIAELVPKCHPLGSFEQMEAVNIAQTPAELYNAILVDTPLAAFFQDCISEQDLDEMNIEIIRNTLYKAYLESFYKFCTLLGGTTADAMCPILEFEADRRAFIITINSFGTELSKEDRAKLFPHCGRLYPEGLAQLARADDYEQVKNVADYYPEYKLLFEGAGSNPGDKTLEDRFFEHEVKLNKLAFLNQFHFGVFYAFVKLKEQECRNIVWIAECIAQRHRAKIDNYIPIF
UniProt Q9H2C2: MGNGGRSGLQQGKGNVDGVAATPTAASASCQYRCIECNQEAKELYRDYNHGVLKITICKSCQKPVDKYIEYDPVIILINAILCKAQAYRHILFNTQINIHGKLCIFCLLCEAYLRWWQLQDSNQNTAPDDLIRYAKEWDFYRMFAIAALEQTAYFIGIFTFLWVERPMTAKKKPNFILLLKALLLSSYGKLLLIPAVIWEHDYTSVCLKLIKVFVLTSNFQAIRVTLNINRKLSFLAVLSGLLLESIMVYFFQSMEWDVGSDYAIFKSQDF
UniProt P15848: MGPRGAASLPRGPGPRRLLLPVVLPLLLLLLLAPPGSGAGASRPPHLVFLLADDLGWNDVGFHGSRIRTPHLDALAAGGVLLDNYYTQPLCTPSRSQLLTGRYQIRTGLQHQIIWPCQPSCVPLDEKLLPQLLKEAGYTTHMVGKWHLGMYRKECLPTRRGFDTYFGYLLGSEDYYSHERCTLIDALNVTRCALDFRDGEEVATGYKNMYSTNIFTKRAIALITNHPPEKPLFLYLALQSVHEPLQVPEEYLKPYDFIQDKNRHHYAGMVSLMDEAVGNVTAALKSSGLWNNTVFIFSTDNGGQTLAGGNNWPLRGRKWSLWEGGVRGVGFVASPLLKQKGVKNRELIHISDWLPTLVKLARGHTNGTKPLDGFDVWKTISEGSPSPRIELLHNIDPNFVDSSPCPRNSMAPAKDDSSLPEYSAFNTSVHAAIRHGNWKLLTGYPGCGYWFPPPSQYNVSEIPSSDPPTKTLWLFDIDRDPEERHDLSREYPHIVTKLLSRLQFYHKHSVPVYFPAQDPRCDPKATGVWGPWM
UniProt Q9Y294, whole entry, looked up: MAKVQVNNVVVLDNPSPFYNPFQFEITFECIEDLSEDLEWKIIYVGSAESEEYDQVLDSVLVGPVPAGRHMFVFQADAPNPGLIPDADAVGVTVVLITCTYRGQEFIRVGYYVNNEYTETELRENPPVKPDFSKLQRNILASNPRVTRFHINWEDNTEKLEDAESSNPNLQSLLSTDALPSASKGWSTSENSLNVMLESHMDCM
UniProt Q8NB49: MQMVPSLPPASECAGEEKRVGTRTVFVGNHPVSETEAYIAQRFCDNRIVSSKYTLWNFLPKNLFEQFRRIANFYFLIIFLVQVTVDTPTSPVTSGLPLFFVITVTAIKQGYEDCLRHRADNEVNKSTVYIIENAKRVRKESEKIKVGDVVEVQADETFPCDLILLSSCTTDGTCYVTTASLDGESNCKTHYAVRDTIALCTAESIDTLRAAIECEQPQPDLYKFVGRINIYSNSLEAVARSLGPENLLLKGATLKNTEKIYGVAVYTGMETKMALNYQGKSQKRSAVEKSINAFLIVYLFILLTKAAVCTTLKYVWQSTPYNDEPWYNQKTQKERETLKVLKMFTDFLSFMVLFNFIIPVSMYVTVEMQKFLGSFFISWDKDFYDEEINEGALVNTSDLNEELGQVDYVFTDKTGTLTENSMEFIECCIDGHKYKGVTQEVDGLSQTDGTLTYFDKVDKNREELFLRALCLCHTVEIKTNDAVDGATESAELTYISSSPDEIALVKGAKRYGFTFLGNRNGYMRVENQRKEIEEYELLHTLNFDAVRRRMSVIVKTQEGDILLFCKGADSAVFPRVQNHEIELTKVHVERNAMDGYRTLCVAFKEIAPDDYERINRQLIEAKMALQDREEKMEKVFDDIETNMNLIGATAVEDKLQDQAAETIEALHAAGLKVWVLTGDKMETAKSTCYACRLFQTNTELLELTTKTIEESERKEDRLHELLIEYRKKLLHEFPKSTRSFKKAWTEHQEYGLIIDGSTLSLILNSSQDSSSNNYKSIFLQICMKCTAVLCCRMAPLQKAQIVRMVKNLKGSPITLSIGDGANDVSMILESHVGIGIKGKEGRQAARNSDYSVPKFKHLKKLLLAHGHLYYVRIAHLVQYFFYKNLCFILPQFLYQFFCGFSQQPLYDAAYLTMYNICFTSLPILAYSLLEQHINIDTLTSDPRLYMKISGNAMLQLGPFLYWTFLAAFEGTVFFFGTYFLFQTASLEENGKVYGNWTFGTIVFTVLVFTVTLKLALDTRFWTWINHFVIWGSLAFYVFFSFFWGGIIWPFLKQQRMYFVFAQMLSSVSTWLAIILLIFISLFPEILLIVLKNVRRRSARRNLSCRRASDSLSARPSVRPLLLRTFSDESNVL
UniProt P23634: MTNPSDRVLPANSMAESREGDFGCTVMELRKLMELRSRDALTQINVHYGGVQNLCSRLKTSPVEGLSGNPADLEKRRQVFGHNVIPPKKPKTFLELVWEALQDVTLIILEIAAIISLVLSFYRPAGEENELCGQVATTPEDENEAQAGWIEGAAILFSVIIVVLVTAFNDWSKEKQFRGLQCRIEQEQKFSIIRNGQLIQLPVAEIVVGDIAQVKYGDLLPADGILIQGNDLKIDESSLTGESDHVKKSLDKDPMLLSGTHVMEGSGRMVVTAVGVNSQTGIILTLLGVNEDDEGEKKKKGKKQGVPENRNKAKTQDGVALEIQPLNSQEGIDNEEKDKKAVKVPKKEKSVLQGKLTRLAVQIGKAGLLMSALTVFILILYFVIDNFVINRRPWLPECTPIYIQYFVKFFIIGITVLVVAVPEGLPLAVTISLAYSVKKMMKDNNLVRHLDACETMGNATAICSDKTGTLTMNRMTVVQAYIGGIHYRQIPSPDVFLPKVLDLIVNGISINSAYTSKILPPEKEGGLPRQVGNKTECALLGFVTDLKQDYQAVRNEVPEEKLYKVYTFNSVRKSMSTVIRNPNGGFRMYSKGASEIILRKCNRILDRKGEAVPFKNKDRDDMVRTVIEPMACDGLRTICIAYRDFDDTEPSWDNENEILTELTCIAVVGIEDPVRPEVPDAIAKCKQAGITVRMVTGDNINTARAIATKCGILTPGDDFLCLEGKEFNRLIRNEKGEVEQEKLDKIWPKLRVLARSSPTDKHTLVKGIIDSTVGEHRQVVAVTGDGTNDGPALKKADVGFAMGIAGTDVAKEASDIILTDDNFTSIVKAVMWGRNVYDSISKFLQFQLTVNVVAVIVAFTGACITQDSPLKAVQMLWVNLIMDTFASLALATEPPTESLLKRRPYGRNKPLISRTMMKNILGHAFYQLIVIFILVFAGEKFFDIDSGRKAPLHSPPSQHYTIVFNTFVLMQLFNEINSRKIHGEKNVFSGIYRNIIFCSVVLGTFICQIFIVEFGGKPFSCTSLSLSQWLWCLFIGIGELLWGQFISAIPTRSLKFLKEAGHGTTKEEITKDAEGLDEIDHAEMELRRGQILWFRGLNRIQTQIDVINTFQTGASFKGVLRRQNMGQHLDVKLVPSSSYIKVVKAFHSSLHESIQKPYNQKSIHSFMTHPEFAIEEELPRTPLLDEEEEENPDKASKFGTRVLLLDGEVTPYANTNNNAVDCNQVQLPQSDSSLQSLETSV

Compound in this assay: CC1=CC=C(C=C1)SC2=C3C=C(SC3=CN=C2)C(=O)N
The assay can be described thus: log2 fold change, soluble protein after heating vs DMSO (PISA); higher = thermal stabilisation; K562 cells, 10 uM, 30 min; active = over 0.2 and 3.5 SD of the protein, either way, in both replicates (recomputed). In outline:
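Thermal stability values are relative to control samples and come from duplicates. They are expressed as log2 fold changes. For measurement, K562 cells (2×10^6 cells/mL) received 10 μM compound for 30 min, and aliquots were heated for 3 min over 48°C-58°C, pooled, and extracted at 4°C in PBS with 0.5% NP-40. Soluble protein, the supernatant after 21,000xg for 90 min, was quantified by TMTpro 16plex LC-MS/MS with equalised channel sums.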
With ASPH (UniProt Q12797), the log2 fold change was inactive: -0.086.

Turning to ATP2C1 isoform 7 (UniProt P98194), the log2 fold change was inactive: -0.007.

Consider ATL3 (UniProt Q6DD88), for which the log2 fold change was inactive: 0.021.

For ARPC5 (UniProt O15511), the log2 fold change is inactive: 0.006.

For ARPC2 (UniProt O15144), the log2 fold change is inactive: -0.009.

Take ATP5MC2 isoform 2 (UniProt Q06055): the log2 fold change is inactive: -0.04.

As for ARMC1 (UniProt Q9NVT9), the log2 fold change was inactive: 0.039.

For ATF2 (UniProt P15336), the log2 fold change is inactive: -0.002.

As to ATP6V0D1 (UniProt P61421), the log2 fold change is inactive: 0.022.

Take ASCC3 (UniProt Q8N3C0): the log2 fold change is inactive: -0.079.

Turning to ARPC4 isoform 3 (UniProt P59998), the log2 fold change was inactive: 0.002.

Consider ARV1 (UniProt Q9H2C2), for which the log2 fold change was inactive: 0.019.

In the case of ARSB (UniProt P15848), the log2 fold change was inactive: 0.07.

As to ASF1A (UniProt Q9Y294), the log2 fold change is inactive: 0.023.

With ATP11C (UniProt Q8NB49), the log2 fold change was inactive: 0.037.

Regarding ATP2B4 (UniProt P23634), the log2 fold change was inactive: -0.03.

The record behind these values is the supplement of paper PMC10849652.
